The values below come from publication PMC7819943, “Rice protein-binding microarrays: a tool to detect cis-acting elements near promoter regions in rice”.

The chains behind the UniProt entries cited, without tags or fusion partners.
UniProt Q0JBA9, entry or part of it: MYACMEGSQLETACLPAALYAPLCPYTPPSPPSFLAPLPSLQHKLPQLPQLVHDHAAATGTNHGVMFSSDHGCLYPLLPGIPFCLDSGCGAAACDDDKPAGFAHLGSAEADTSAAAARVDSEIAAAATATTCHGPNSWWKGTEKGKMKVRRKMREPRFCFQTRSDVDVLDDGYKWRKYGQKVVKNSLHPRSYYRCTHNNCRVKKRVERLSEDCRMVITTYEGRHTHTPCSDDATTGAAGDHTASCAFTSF

Some of the results follow.

The experiment concerns the target OsWRKY34 (Oryza sativa, UniProt Q0JBA9 1-250). The experiment can be described thus: protein-binding microarray (RPBM); PBS, 2% BSA, 51.3 ng/ul salmon testes DNA, 50 uM zinc acetate, 200 nM TF, 25 C, 1 h; high values mean tight binding. Particulars: protein: recombinant; tags: N-terminal polyhistidine and DsRed monomer fusion (pET32a); label: CyDye5-dUTP incorporated in the synthesized complementary strand; 3' TTTTT single-stranded linker to array surface; dsDNA, one strand shown. In outline: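 In PBS with 2% BSA, salmon testes DNA and 50 µM zinc acetate, 200 nM protein was incubated on a custom Agilent array at 25 °C for 1 h and then washed off. The array had been made double-stranded by primer extension with Cy5-dUTP and blocked with 2% BSA. The proteins were transcription factors fused N-terminally to polyhistidine and DsRed, expressed in E. coli BL21-CodonPlus and purified on Ni–NTA. The binding signal is per-feature fluorescence intensity (arbitrary units) from an Axon 4000B scanner.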
As for “CTCTGTCGCCGGCCTCTCCAGCGCCCCTGCGTTATCCCTCCGGAGTCACCTAGTGCAG”, the binding signal is 8420 fluorescence intensity (a.u.).
As for “GCCCGCCATCTCCTCGCCTCGCCGTCGAAGGCCCGCAATGCGGAGTCACCTAGTGCAG”, the binding signal was 8870 fluorescence intensity (a.u.).
The figure for “ATTATATATACTATGCTCAAATTTGTACTAATTGGTTTGACGGAGTCACCTAGTGCAG” is 8440 fluorescence intensity (a.u.); for “CTCTCTCACACACACACTCTCACTCTTCTCTTATCCTCTCCGGAGTCACCTAGTGCAG” it is 13300 fluorescence intensity (a.u.); for “GTAACCGTCTCATCTTTGTCTTCCGTAAAAAAATGATCATCGGAGTCACCTAGTGCAG” it is 9470 fluorescence intensity (a.u.).
The figure for “CTCGTCTCCTCCGCCTCGCGACTTCGCCTCGCCGGCGCCGCGGAGTCACCTAGTGCAG” is 8280 fluorescence intensity (a.u.).
In the case of “AACCTCTTGGAACATTTCCTCTAAGTCTATCTCTCTCATCCGGAGTCACCTAGTGCAG” it was 9100 fluorescence intensity (a.u.); in that of “CGTCTGCCCATCCGTTTTACGCTCGTCCGCGACCGCCGCCCGGAGTCACCTAGTGCAG”, 10700 fluorescence intensity (a.u.).
“AGCCTATAGTCTCTTTATCCCTTTCTCGGTCAAATAGTGCCGGAGTCACCTAGTGCAG”: the binding signal is 8600 fluorescence intensity (a.u.).
As to “TTCTGCTGATATTTGCTCTTCTTCTGTCATATCACCTTGCCGGAGTCACCTAGTGCAG”, the binding signal is 13700 fluorescence intensity (a.u.).
Regarding “CCCGAGCACGCACACTCGCCGCCGCACTCCACTTCCCCAACGGAGTCACCTAGTGCAG”, the binding signal is 9590 fluorescence intensity (a.u.).
The figure for “CGAGCTATCCTGCGCCGGCCTCTATATATCACCTCGAGCTCGGAGTCACCTAGTGCAG” is 9680 fluorescence intensity (a.u.); for “GGTTTTACCGCAACCGCCTAGACACATCGCGTACTATCTCCGGAGTCACCTAGTGCAG” it is 9110 fluorescence intensity (a.u.); for “AAAAAAAAAAGTCAAACCTGGTTTCCTACCAACGTTTGACCGGAGTCACCTAGTGCAG” it is 9420 fluorescence intensity (a.u.).
Regarding “TCTCCCCTACTCATTGTCGGCTGACCTGGAGGTTGCGTTGCGGAGTCACCTAGTGCAG”, the binding signal was 8040 fluorescence intensity (a.u.).
The figure for “CGTTGTCGCCGGCGATCTCTCTTCACCTGCTCCGGCCGCTCGGAGTCACCTAGTGCAG” is 11900 fluorescence intensity (a.u.); for “ATATATGAATCCGATTCTGTCTTACCCTCACCTGGAAATACGGAGTCACCTAGTGCAG” it is 8240 fluorescence intensity (a.u.); for “TTATTAGGTTCTGCTATCTTATGATTCTATTTTGAATTCTCGGAGTCACCTAGTGCAG” it is 8320 fluorescence intensity (a.u.).
In the case of “GGCCGCCCAGCCCGTCGCGCGCTTCCGCCGCGCCGCCGCGCGGAGTCACCTAGTGCAG” it was 9750 fluorescence intensity (a.u.); in that of “ATTTTAAGGCAAATGTTTTCATAGCTGGGTCGTTGACGTACGGAGTCACCTAGTGCAG”, 8360 fluorescence intensity (a.u.).
The figure for “CTCTAACCTAGTTTATCACTACTCATATTTTATTTTATTACGGAGTCACCTAGTGCAG” is 8940 fluorescence intensity (a.u.); for “CCCGCCCGCCCCAGCACGCCGCCGCCCGCCGCCCATCGCCCGGAGTCACCTAGTGCAG” it is 8500 fluorescence intensity (a.u.); for “CTACATGCTGTAGGAATCGCCACCCACTTTTCATCTCTCTCGGAGTCACCTAGTGCAG” it is 8660 fluorescence intensity (a.u.).
In the case of “CAACCAATCAACTTAGGGCATTATTAGCAGTTTAATAGTACGGAGTCACCTAGTGCAG”, the binding signal was 8090 fluorescence intensity (a.u.).
The figure for “TCACCAAACCTCACGTTTTAGTAGCCGATGTTTGTGTCTTCGGAGTCACCTAGTGCAG” is 8090 fluorescence intensity (a.u.); for “ATCCATCTTCCACTGCATCAGCAGCTTCTTTTTCACCCTGCGGAGTCACCTAGTGCAG” it is 8620 fluorescence intensity (a.u.).
The figure for “TTGTTTGTTGACCCCATTTGCCTTGCCCCTATCTAATCTACGGAGTCACCTAGTGCAG” is 9390 fluorescence intensity (a.u.).
The figure for “AATTCAACGAGTTACACCTTCCACCGTCAACCGAGGAGCTCGGAGTCACCTAGTGCAG” is 8620 fluorescence intensity (a.u.); for “TTTACTTCTATCTGCCTTTTCAGCTGTGATGTTTAACAATCGGAGTCACCTAGTGCAG” it is 8380 fluorescence intensity (a.u.).
“CTTTTTTTTTTTTTGCTCGCTCTCTCGCACCGCATTTATTCGGAGTCACCTAGTGCAG”: the binding signal is 8640 fluorescence intensity (a.u.).
In the case of “CGGTAGCTATATGGGGATTTTTTTTTTGTTGACTACTAGTCGGAGTCACCTAGTGCAG” it was 8370 fluorescence intensity (a.u.).
For “CAATTTTCGCCGTCTTTGCAAGCAAACGCACGCAAGCGACCGGAGTCACCTAGTGCAG”, the binding signal was 8760 fluorescence intensity (a.u.).
With “GATCGATAGTTGCACGTTCTGACACATGTCATCTGTACCGCGGAGTCACCTAGTGCAG”, the binding signal is 8920 fluorescence intensity (a.u.).
In the case of “GCTGATTTCAAACAATGTAGGTAAAGGTTGTAGGGTTCATCGGAGTCACCTAGTGCAG” it was 9030 fluorescence intensity (a.u.).
In the case of “GCTTCCCCGTCACTCCCACTATTTCCCACTCGTCGCCGGCCGGAGTCACCTAGTGCAG” it was 8280 fluorescence intensity (a.u.); in that of “CACCTGTCATACACACGTTACGTCTTGGAGTCCGTGCTATCGGAGTCACCTAGTGCAG”, 9360 fluorescence intensity (a.u.).
As for “TCTTTTGCTTCTGTTCTGCACCGGTCTCTCTGATGGATGTCGGAGTCACCTAGTGCAG”, the binding signal was 9680 fluorescence intensity (a.u.).
The figure for “TTGACATGCTAACTTGGCCATGTTCACCGCCGAAGCTCGCCGGAGTCACCTAGTGCAG” is 9010 fluorescence intensity (a.u.); for “TTCCCCATAGCCCTTGTATTTCTCTAATGCATTCATATTGCGGAGTCACCTAGTGCAG” it is 12600 fluorescence intensity (a.u.); for “GACGGGCTGGAGTTAAAATTTTGTATTTACTCTTTTTTTTCGGAGTCACCTAGTGCAG” it is 9300 fluorescence intensity (a.u.).
The figure for “CCCCACATATCAGCCTGTCCAGTCTCCTCTCTCTTTCCCCCGGAGTCACCTAGTGCAG” is 8400 fluorescence intensity (a.u.).
“ACCTCCGCGTCCGGCAGCCGCCTCGTCCTCAACCGCCTCCCGGAGTCACCTAGTGCAG”: the binding signal is 9240 fluorescence intensity (a.u.).
The figure for “GTGTTTTTTCTTCATTTGTCCCGTAATAAATTTATTTTTTCGGAGTCACCTAGTGCAG” is 12500 fluorescence intensity (a.u.); for “TTGTTTTTATTCAGGGTATAGTCTATTTATTTATTTTCTTCGGAGTCACCTAGTGCAG” it is 8110 fluorescence intensity (a.u.).
Turning to “CCTCCTTTTTTCTTGTTTGGCTCCATTTGTAAATACTCTTCGGAGTCACCTAGTGCAG”, the binding signal is 12100 fluorescence intensity (a.u.).
The figure for “CGGTGCTGAGTCGTCATCAGTTGATGTTCTCACGAATTCGCGGAGTCACCTAGTGCAG” is 8250 fluorescence intensity (a.u.); for “TAGTGGACGGCGGGATTTTGGCGATTTCAGTGTCTACAAGCGGAGTCACCTAGTGCAG” it is 9380 fluorescence intensity (a.u.).
In the case of “AAATATTTGACGCCGTTGACTTTTTTAAATATGTTTAACCCGGAGTCACCTAGTGCAG”, the binding signal was 27200 fluorescence intensity (a.u.).
In the case of “ATTAACTAATTAATTCGTACTTTTGCTTTTTATTATTTTTCGGAGTCACCTAGTGCAG” it was 10000 fluorescence intensity (a.u.); in that of “TCTCGGTGAACAGGGGCCGCGGCTGGCGGGCGGCGGGCGGCGGAGTCACCTAGTGCAG”, 9470 fluorescence intensity (a.u.).
With “GCCTCATCTTCTGGCGCTTCTATGGGTATATTACTCTAATCGGAGTCACCTAGTGCAG”, the binding signal is 9580 fluorescence intensity (a.u.).
The figure for “CTCGCCGCCCGCCTATTTCACGCCGCCGCGCCGCGCAGACCGGAGTCACCTAGTGCAG” is 9860 fluorescence intensity (a.u.); for “GAGTTCAGGATCAATCAGTTTGACCAACCAAACAACTTCACGGAGTCACCTAGTGCAG” it is 8120 fluorescence intensity (a.u.); for “GACGCTCCGGATCAATCCACGTTGGCATGGCTTCCCCGCACGGAGTCACCTAGTGCAG” it is 9190 fluorescence intensity (a.u.).
